# The whole screen tested about 340,000 compounds, of which about 4,500 (1.3%) were called active. The shares of active, inactive and inconclusive entries below differ from those in the screen. Calls follow the shape of the dose curve; as a rule, active = well fitted inhibition curve with a large enough effect; inconclusive = small, poorly fitted or top-dose-only effect, or another doubt; inactive = no such curve, though single readings can be large or run the other way. Potencies of inconclusive entries are doubtful fits and often do not repeat.
# Target: DNA polymerase beta (Homo sapiens) (UniProt P06746)
# Experiment: qHTS Assay for Inhibitors of DNA Polymerase Beta
# Details: Pol beta primer extension/strand displacement, fluorescence kinetic; activity change, negative = inhibition: at 114 µM (top of the series)
# Procedure, shortened: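 Reaction started by 50 nM substrate onto compound-treated Pol beta (10 nM, 15 min preincubation, room temperature); plates read at 0 min and 10 min. Normalized concentration-effect data fitted by four-parameter Hill equation.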
# % is scaled to controls: 0 for no effect and ±100 for the full control effect; potency is read from the fitted curve at half-maximal effect.
SMILES,"activity change, negative = inhibition",Potency
COc1ccc(Cn2ccc3nc(C)c(C(=O)Nc4cc(C)cc(C)c4)cc3c2=O)cc1,inactive: 3.04%,
O=C(c1ccc(COc2ccccc2[N+](=O)[O-])o1)N1CCCCC1,inactive: 20.7%,
COc1ccccc1CCNC(=O)c1ccc(-c2nc(CSc3ccc(C)cc3)c(C)o2)cc1,inactive: 22.3%,
CCc1ccc(/C=N/NC(=O)c2cc(-c3cccc([N+](=O)[O-])c3)n[nH]2)cc1,,"inconclusive: 20 µM [inhibitor, full curve, poor fit]"
COCCCn1c(SCC(=O)OC2CCCCC2)nnc1-c1cccs1,inactive: 2.75%,
Cc1oc(-c2ccc(C(=O)NCc3ccc(Cl)cc3)cc2)nc1CS(=O)(=O)c1ccccc1,,"inconclusive: 56.2 µM [inhibitor, single point]"
Cc1ccc(C(=O)N/C(=C/c2ccc(-c3cccc([N+](=O)[O-])c3)o2)C(=O)NCCCN(C)C)cc1,,"inconclusive: 89.1 µM [inhibitor, single point]"
CC(=O)c1ccc(NC(=O)c2ccc3c(c2)C(=O)N(c2ccccn2)C3=O)cc1,inactive: -18.4%,
CCOCCCn1c(SCC(=O)OCC)nc2c(sc3ccccc32)c1=O,inactive: 28.2%,
COCCNC(=O)CSc1nc(-c2cc(OC)c(OC)c(OC)c2)[nH]c1-c1ccc(Cl)cc1,,"inconclusive: 89.1 µM [inhibitor, single point]"
CC1CCN(S(=O)(=O)c2ccc(C(=O)N3CCN(c4ccccc4F)CC3)cc2)CC1,,"inconclusive: 22.4 µM [inhibitor, partial curve]"
COc1ccc(-c2nn(C)c(=O)c3ccccc23)cc1CNC(=O)NC1CCCCC1,,"inconclusive: 25.1 µM [inhibitor, full curve]"
S=c1[nH]nc(-c2cc(-c3ccccc3)n[nH]2)n1/N=C/c1ccccc1,inactive: 1.61%,
O=C(O)Cn1cc(/C=C2/NC(=O)N(c3ccc(Cl)cc3)C2=O)c2ccccc21,,"inconclusive: 89.1 µM [inhibitor, single point]"
NC1=NC(=O)/C(=C/c2cn(Cc3ccccc3)c3ccccc23)S1,,"inconclusive: 25.1 µM [inhibitor, full curve]"
O=C(CCN1C(=O)c2ccccc2C1=O)NCCC1=CCCCC1,,"inconclusive: 70.8 µM [inhibitor, single point]"
Cc1cc(C)nc(N2CCN(c3nnnn3-c3ccccc3)CC2)n1,,"inconclusive: 3.55 µM [inhibitor, full curve, poor fit]"
CNC(=O)C1CCC(Cn2c(=O)c3sccc3n(CC(=O)Nc3ccc(C)c(C)c3)c2=O)CC1 (centres undefined),inactive: 35.7%,
CC(C(=O)Nc1ccc(O)c(C(=O)O)c1)N1C(=O)/C(=C/c2cccs2)SC1=S (centres undefined),,"inconclusive: 0.251 µM [inhibitor, full curve]"
CCOc1ccc(Cc2c(C)[nH]c3ccc(C(=O)O)cc3c2=S)cc1,,"inconclusive: 100 µM [inhibitor, single point]"
O=C(CSc1nnc(-c2cc3ccccc3cc2O)n1Cc1ccco1)N1CCc2ccccc2C1,,"inconclusive: 79.4 µM [inhibitor, partial curve]"
Cc1ccc(N(CC(=O)NCCSc2ccccn2)S(=O)(=O)c2ccc(F)cc2)cc1,,"inconclusive: 0.631 µM [inhibitor, full curve, poor fit]"
CC(C)CCSc1nc2ccccc2[nH]1,,"inconclusive: 44.7 µM [inhibitor, partial curve, poor fit]"

SMILES,"activity change, negative = inhibition",Potency
Cc1ccc(NC(=O)CSc2nc(=O)n(CCN3CCOCC3)c3c2CCC3)c(C)c1,inactive: 0.742%,
CCOCCCn1c(SCc2nc3sc(C(=O)O)c(C)c3c(=O)[nH]2)nnc1-c1ccc(Cl)cc1,inactive: -11.3%,
CC(=O)c1cccc(NC(=O)c2nc(-c3ccccc3)n(-c3cccc(Cl)c3)n2)c1,,"inconclusive: 79.4 µM [inhibitor, single point]"
CCOc1ccccc1CNc1ccc2cc(S(=O)(=O)N3CCC(C)CC3)ccc2n1,inactive: -0.825%,
O=C1/C(=C\c2ccc(O)c(O)c2)C(c2ccccc2)=NN1c1ccccc1,,active: 8.91 µM
CCc1ccc(NC(=O)Cn2c(=O)n(CCCCC(=O)NCc3ccc4c(c3)OCO4)c(=O)c3ccccc32)cc1,,"inconclusive: 89.1 µM [inhibitor, single point]"
COc1cc(/C=C2\CC/C(=C\c3cc(OC)c(O)c(OC)c3)C2=O)cc(OC)c1O,,active: 4.47 µM
Cc1cc(O)cc(O[C@H]2OC(CO)[C@H](O)[C@@H](O)[C@H]2O)c1 (some centres undefined),,"inconclusive: 31.6 µM [inhibitor, partial curve, poor fit]"
COc1cccc2cc(C(=O)OCc3ccccc3)c(=O)oc12,,"inconclusive: 25.1 µM [inhibitor, full curve]"
C#CCOCCOCCOCCNc1nc(N2CCN(C(=O)Cn3cc(CCCCN)nn3)CC2)nc(N2CCN(C(=O)Cn3cc(CCCCN)nn3)CC2)n1,,active: 39.8 µM
CCc1cccc(NC(=O)c2cn3c4c(ccc(Cl)c4c2=O)OC(C)C3)c1 (centres undefined),inactive: 0.179%,
Cc1ccc2nc(N3CCN(c4ccccc4)CC3)c3nnnn3c2c1,inactive: 36.7%,
COC(=O)c1ccc(NC(=O)CSc2nc(C)cc(C)c2C(=O)Nc2ccccc2)cc1,inactive: -8.84%,
O=C(Cn1cncc1-c1ccc([N+](=O)[O-])cc1)Nc1ccccc1F,,"inconclusive: 35.5 µM [inhibitor, partial curve]"
Cc1ccsc1/C=C/C1=Cc2c(sc(NC(=O)CSc3n[nH]c(N)n3)c2C#N)C(C)(C)C1,,"inconclusive: 17.8 µM [inhibitor, partial curve]"
O=C(Nc1ccccc1)c1ccc(N2CCN(c3ccccc3)CC2)c(S(=O)(=O)N2CCOCC2)c1,inactive: -11%,
Cc1ccc(-n2ncc(C(=O)NCCc3ccccc3)c2C2CCN(C(=O)OC(C)(C)C)CC2)c(C)c1,,"inconclusive: 79.4 µM [inhibitor, single point]"
C#CCOc1ccc(/C=C2/C(=O)ON=C2C)cc1Br,,"inconclusive: 79.4 µM [inhibitor, single point]"
COc1ccc(NS(=O)(=O)c2cccc(-c3nnc4n3CCCCC4)c2)cc1,,"inconclusive: 89.1 µM [inhibitor, single point]"
CSc1sc(-c2n[nH]c(=S)n2C)c2c1C=CCC2,inconclusive: -43.7% [inhibitor],
CCCCS(=O)(=O)c1sc2nc(C)cc(C)c2c1N,,"inconclusive: 3.55 µM [inhibitor, full curve]"
Cc1cc(C)c2c(N)c3cccc(C)c3nc2n1,,active: 12.6 µM
O=C(CCCc1nc2ccccc2s1)NCc1ccccc1,,"inconclusive: 39.8 µM [inhibitor, single point]"

SMILES,"activity change, negative = inhibition",Potency
C/C(=N\NC(=O)c1cccc(N2CCCC2=O)c1)c1ccc(N)cc1,,"inconclusive: 0.141 µM [inhibitor, full curve, poor fit]"
O=C(Cc1ccccc1)NCC1CCCO1 (centres undefined),inactive: -15%,
CN(C)c1ccc(/C=N/NC(=O)c2ccccn2)cc1,,"inconclusive: 89.1 µM [inhibitor, single point]"
CC(=O)c1sc(N/N=C\c2ccc(C)cc2)nc1C,,"inconclusive: 50.1 µM [inhibitor, partial curve, poor fit]"
CCn1c(SCCOc2ccc(Cl)cc2)nnc1-c1cccs1,,"inconclusive: 3.98 µM [inhibitor, full curve]"
Cc1ccc(NC(=O)c2cc(=O)c3ccccc3o2)cc1,,"inconclusive: 39.8 µM [inhibitor, partial curve]"
CCCn1ccc2c(OCC(=O)Nc3cc(C)ccc3C)cccc2c1=O,,"inconclusive: 25.1 µM [inhibitor, full curve]"
COc1ccc(/C=N/NC(=O)c2ccc3c(c2)NC(=O)C(C)(C)O3)cc1OC,,"inconclusive: 89.1 µM [inhibitor, single point]"
O=C(COC(=O)c1ccccc1[N+](=O)[O-])NNC(=O)c1cccs1,,"inconclusive: 28.2 µM [inhibitor, full curve]"
Cc1ccc(NC(=O)c2ccccc2)cc1-n1cnnn1,,active: 31.6 µM
Cc1ccc2oc(-c3cccc(NC(=S)NC(=O)/C=C/c4ccco4)c3)nc2c1,,active: 44.7 µM
CC(C(=O)O)N1C(=O)/C(=C/C=C/c2ccco2)SC1=S (centres undefined),,active: 1.26 µM
CCOc1cc(/C=C2/SC(=S)N(Cc3ccccc3)C2=O)ccc1O,,"inconclusive: 4.47 µM [inhibitor, full curve]"
O=C(O)C1Nc2c(C(=O)N3CCOCC3)cccc2C2C=CCC12 (centres undefined),,active: 20 µM
O=C1ON=C(c2ccccc2)/C1=C/c1ccc(O)cc1,inactive: -1.27%,
CC(c1ccccn1)N(Cc1ccco1)C(=S)Nc1cccc(F)c1 (centres undefined),,"inconclusive: 89.1 µM [inhibitor, single point]"
COc1ccccc1NC(=O)CSc1nc(O)cc(=O)n1-c1ccccc1OC,,"inconclusive: 89.1 µM [inhibitor, single point]"
C=CCNC(=O)c1cc2c(C(F)(F)F)nn(C)c2s1,inactive: 17.5%,
COc1cccc(C(=O)N2c3nc(-c4ccco4)nn3C3(CCCCC3)[C@@H]3CCCC[C@@H]32)c1,inactive: -0.341%,
O=C(CN(C(=O)CNC(=O)c1ccco1)c1ccc(F)cc1)NC1CCCCC1,,"inconclusive: 28.2 µM [inhibitor, single point]"
O=C(O)/C=C/C(=O)NNC(=O)c1cc(-c2ccccc2)n[nH]1,,"inconclusive: 28.2 µM [inhibitor, full curve]"
O=C(CCS(=O)(=O)c1ccccc1)Nc1ccccn1,,"inconclusive: 44.7 µM [inhibitor, partial curve]"
CCOC(=O)C1CCN(S(=O)(=O)c2cc3c4c(c2)CC(=O)N4CCC3)CC1,inactive: -17.9%,

# Four records drawn at random from those above, as already listed:
SMILES,"activity change, negative = inhibition",Potency
CCCn1ccc2c(OCC(=O)Nc3cc(C)ccc3C)cccc2c1=O,,"inconclusive: 25.1 µM [inhibitor, full curve]"
CCOc1cc(/C=C2/SC(=S)N(Cc3ccccc3)C2=O)ccc1O,,"inconclusive: 4.47 µM [inhibitor, full curve]"
C/C(=N\NC(=O)c1cccc(N2CCCC2=O)c1)c1ccc(N)cc1,,"inconclusive: 0.141 µM [inhibitor, full curve, poor fit]"
CN(C)c1ccc(/C=N/NC(=O)c2ccccn2)cc1,,"inconclusive: 89.1 µM [inhibitor, single point]"
